This is one part of the list.
Assay: BmaI1 acyl-homoserine lactone synthase inhibition – biochemical, fluorescence intensity, with counterscreen (AID 720554)
Settings: BmaI1 enzyme assay, measured here: counterscreen fluorescence % control, concentration not given here
`Cc1ccc(C(=O)NCC2(N(C)C)CCCCC2)o1` gave an inhibition of 3.5%. For `Cc1cnc(C(=O)NCC2(N3CCCCC3)CCCCC2)cn1`, the inhibition was 10.5%. Compound `O=C(NCC1(N2CCOCC2)CCCCC1)c1ccc2nc[nH]c2c1` has an inhibition of 10.5%. `CN(C)c1ccc(C(=O)NCC2(N3CCCCC3)CCCCC2)cc1` gave an inhibition of 11.5%. With `O=C(NCC1(N2CCOCC2)CCCCC1)c1cc2ccccc2cc1O` the inhibition was 5%.
